From PMC12332008, “Ribosome biogenesis in plants requires the nuclear envelope and mitochondria localized OPENER complex” (Nature Communications, 2025)

Sequences of proteins named here, by UniProt entry; tags and fusion partners are left off. A change or cut given only in a name is not applied to a line headed by its entry.
UniProt Q9ZPR1: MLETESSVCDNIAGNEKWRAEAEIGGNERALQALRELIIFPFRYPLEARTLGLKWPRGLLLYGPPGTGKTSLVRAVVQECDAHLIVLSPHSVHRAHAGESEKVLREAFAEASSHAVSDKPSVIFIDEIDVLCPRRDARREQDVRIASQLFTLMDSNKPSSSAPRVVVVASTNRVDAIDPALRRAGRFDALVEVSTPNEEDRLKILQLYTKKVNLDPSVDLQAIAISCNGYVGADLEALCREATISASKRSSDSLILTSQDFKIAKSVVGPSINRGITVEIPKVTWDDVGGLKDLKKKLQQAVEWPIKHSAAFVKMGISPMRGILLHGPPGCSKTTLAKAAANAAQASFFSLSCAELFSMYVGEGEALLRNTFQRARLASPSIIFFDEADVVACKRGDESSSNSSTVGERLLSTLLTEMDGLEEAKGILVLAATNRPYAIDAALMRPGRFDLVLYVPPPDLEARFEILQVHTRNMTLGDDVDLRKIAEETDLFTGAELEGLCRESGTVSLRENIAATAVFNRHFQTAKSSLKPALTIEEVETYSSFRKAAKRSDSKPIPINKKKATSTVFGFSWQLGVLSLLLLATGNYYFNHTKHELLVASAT

Biological target: T1, cYFP-CIP111 (Arabidopsis thaliana) (UniProt Q9LET7)
T1 sequence: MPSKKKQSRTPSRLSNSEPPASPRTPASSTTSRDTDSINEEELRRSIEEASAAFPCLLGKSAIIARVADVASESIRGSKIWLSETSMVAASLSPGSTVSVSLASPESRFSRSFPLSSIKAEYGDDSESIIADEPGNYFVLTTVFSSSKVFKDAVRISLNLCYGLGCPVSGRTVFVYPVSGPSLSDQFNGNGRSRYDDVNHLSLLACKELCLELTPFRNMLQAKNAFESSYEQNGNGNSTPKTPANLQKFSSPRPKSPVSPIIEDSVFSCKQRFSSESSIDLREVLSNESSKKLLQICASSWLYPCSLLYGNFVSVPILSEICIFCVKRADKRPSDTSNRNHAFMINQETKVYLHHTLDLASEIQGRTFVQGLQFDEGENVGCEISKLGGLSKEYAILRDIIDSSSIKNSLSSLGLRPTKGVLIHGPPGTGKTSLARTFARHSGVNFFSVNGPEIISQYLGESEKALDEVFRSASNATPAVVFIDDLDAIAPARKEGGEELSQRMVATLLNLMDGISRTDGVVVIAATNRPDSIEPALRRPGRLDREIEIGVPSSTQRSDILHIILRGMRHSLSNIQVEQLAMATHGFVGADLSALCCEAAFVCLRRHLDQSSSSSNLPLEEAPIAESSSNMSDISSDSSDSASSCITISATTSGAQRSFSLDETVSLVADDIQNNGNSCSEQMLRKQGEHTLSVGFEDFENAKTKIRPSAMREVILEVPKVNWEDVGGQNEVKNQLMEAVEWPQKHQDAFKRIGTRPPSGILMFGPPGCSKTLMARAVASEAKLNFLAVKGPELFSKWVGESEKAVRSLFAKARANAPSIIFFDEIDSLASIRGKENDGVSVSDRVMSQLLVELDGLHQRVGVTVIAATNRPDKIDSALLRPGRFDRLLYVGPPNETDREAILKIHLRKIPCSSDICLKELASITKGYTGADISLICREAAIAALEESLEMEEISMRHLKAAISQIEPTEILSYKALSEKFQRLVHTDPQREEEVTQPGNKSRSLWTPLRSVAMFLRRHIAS
Experiment: split reporter; BiFC with nYFP210 and cYFP210 in Nicotiana benthamiana leaf epidermal cells

binding: binds
Substance: nYFP-CDC48D (from UniProt Q9ZPR1) (enzyme)

These are yes or no findings as the source states them, for the method shown. Binding seen in cells or lysates may run through a third protein. Binding calls can cover weak binding; strength is not graded here. Tags and fused reporters may be left off the sequences shown.
